{"source": "paper PMC12595434", "about": "“Development of retinoid nuclear receptor pathway antagonists through targeting aldehyde dehydrogenase 1A3” (iScience, 2025)", "experiment_in_all_cases": "Metabolomic profiling of treated cell lines", "key": {"AsPC-1 cells": {"test_system": "AsPC-1 cells", "format": "cell-based, human", "settings": "AsPC-1:MBE, replicates"}, "HEK293": {"test_system": "HEK293", "format": "cell-based", "settings": "HEK293_Inhibitor"}, "LN229 cells": {"test_system": "LN229 cells", "format": "cell-based, human", "settings": "LN229:MBE, replicates"}}, "note": "Where “and” joins values, the source holds several entries; their conditions need not be identical. Equal entries are not always repeated.", "data": [{"compound": "CCc1cnccc1C(=O)Nc1cc2c(cc1F)NC(=O)CC2", "note": "[MBE1, 3-ethyl-N-(7-fluoro-2-oxo-3,4-dihydro-1H-quinolin-6-yl)pyridine-4-carboxamide]", "values": [{"measurement": "5-Hydroxylysine raw counts", "setting": "AsPC-1 cells", "value": "16930.4 and 18511.4 and 20393.4"}, {"measurement": "Arginine raw counts", "setting": "AsPC-1 cells", "value": "4.21E+07 and 4.24E+07 and 4.26E+07"}, {"measurement": "CMP raw counts", "setting": "AsPC-1 cells", "value": "68651.9 and 69412.3 and 72678.9"}, {"measurement": "Fructose-6-phosphate raw counts", "setting": "AsPC-1 cells", "value": "162499 and 178347 and 164197"}, {"measurement": "GMP raw counts", "setting": "AsPC-1 cells", "value": "13054 and 22426.8 and 14251.8"}, {"measurement": "Glutathione disulfide raw counts", "setting": "AsPC-1 cells", "value": "24674.6 and 25067.3 and 37282.5"}, {"measurement": "L-arginino-succinate raw counts", "setting": "AsPC-1 cells", "value": "185568 and 205724 and 197815"}, {"measurement": "NADP+ raw counts", "setting": "AsPC-1 cells", "value": "20524.8 and 19591.4 and 19571.9"}, {"measurement": "NADPH raw counts", "setting": "AsPC-1 cells", "value": "128795 and 164014 and 154507"}, {"measurement": "Thiamine pyrophosphate raw counts", "setting": "AsPC-1 cells", "value": "6899.13 and 12226.7 and 17371.9"}, {"measurement": "UMP raw counts", "setting": "AsPC-1 cells", "value": "12433.8 and 11626.9 and 12777.6"}, {"measurement": "2-Hydroxyglutarate raw counts", "setting": "HEK293", "value": "3334201 and 3370013 and 3258131"}, {"measurement": "Asparagine raw counts", "setting": "HEK293", "value": "1.10E+07 and 1.11E+07 and 1.09E+07"}, {"measurement": "Aspartate raw counts", "setting": "HEK293", "value": "2.26E+07 and 2.95E+07 and 2.83E+07"}, {"measurement": "Cystine raw counts", "setting": "HEK293", "value": "2150908 and 1792681 and 1932809"}, {"measurement": "Dihydroxyacetone phosphate raw counts", "setting": "HEK293", "value": "133547 and 130893 and 139305"}, {"measurement": "Fumarate raw counts", "setting": "HEK293", "value": "2109985 and 1961945 and 2110337"}, {"measurement": "Glucose raw counts", "setting": "HEK293", "value": "2.12E+08 and 1.99E+08 and 2.05E+08"}, {"measurement": "Glutamate raw counts", "setting": "HEK293", "value": "3.60E+08 and 4.00E+08 and 3.85E+08"}, {"measurement": "Glutamine raw counts", "setting": "HEK293", "value": "2.92E+08 and 3.23E+08 and 3.21E+08"}, {"measurement": "Glutathione raw counts", "setting": "HEK293", "value": "4.90E+07 and 5.65E+07 and 5.60E+07"}, {"measurement": "Glycerophosphocholine raw counts", "setting": "HEK293", "value": "392609 and 376677 and 389281"}, {"measurement": "Hisidine raw counts", "setting": "HEK293", "value": "8003698 and 7428740 and 7873790"}, {"measurement": "Inositol raw counts", "setting": "HEK293", "value": "4.90E+07 and 4.97E+07 and 5.16E+07"}, {"measurement": "Malate raw counts", "setting": "HEK293", "value": "4.20E+07 and 4.30E+07 and 4.09E+07"}, {"measurement": "Methionine sulfoxide raw counts", "setting": "HEK293", "value": "1306694 and 1213389 and 1266229"}, {"measurement": "N-acetyl-glutamate raw counts", "setting": "HEK293", "value": "7709980 and 7740664 and 7938092"}, {"measurement": "NAD+ raw counts", "setting": "HEK293", "value": "2007890 and 2095398 and 2270274"}, {"measurement": "NADH raw counts", "setting": "HEK293", "value": "66228.9 and 82736.6 and 74379.8"}, {"measurement": "Proline raw counts", "setting": "HEK293", "value": "1.73E+07 and 1.54E+07 and 1.67E+07"}, {"measurement": "S-adenosyl-L-homocysteine raw counts", "setting": "HEK293", "value": "26060 and 26148.7 and 27432.7"}, {"measurement": "Serine raw counts", "setting": "HEK293", "value": "3.76E+07 and 4.18E+07 and 4.24E+07"}, {"measurement": "Succinate raw counts", "setting": "HEK293", "value": "4.20E+07 and 3.49E+07 and 3.71E+07"}, {"measurement": "Thiamine raw counts", "setting": "HEK293", "value": "5.00E+07 and 5.02E+07 and 4.45E+07"}, {"measurement": "Threonine raw counts", "setting": "HEK293", "value": "1.30E+08 and 1.21E+08 and 1.29E+08"}, {"measurement": "UDP-N-acetyl-glucosamine raw counts", "setting": "HEK293", "value": "6922460 and 7146864 and 7966238"}, {"measurement": "5-Hydroxylysine raw counts", "setting": "LN229 cells", "value": "26977.6 and 37147.9 and 37455.2"}, {"measurement": "ADP raw counts", "setting": "LN229 cells", "value": "281963 and 259383 and 273694"}, {"measurement": "ATP raw counts", "setting": "LN229 cells", "value": "1249224 and 1105136 and 1240834"}, {"measurement": "Aconitate raw counts", "setting": "LN229 cells", "value": "744773 and 754391 and 726720"}, {"measurement": "Arginine raw counts", "setting": "LN229 cells", "value": "1.51E+07 and 1.74E+07 and 1.57E+07"}, {"measurement": "CMP raw counts", "setting": "LN229 cells", "value": "20331.7 and 23148.7 and 22728"}, {"measurement": "CTP raw counts", "setting": "LN229 cells", "value": "179874 and 176413 and 181108"}, {"measurement": "Citrate raw counts", "setting": "LN229 cells", "value": "1049009 and 934518 and 944496"}, {"measurement": "Creatine Phosphate raw counts", "setting": "LN229 cells", "value": "955457 and 940864 and 890509"}, {"measurement": "Cystathionine raw counts", "setting": "LN229 cells", "value": "56241.4 and 41026.6 and 55257.1"}, {"measurement": "D-Glyceraldehyde-3-phosphate raw counts", "setting": "LN229 cells", "value": "59266.2 and 52020.6 and 54626.7"}, {"measurement": "Fructose-1 6-bisphosphate raw counts", "setting": "LN229 cells", "value": "166696 and 126689 and 178645"}, {"measurement": "Fructose-6-phosphate raw counts", "setting": "LN229 cells", "value": "95826.4 and 110337 and 115613"}, {"measurement": "GMP raw counts", "setting": "LN229 cells", "value": "11308.5 and 7404.49 and 10217"}, {"measurement": "GTP raw counts", "setting": "LN229 cells", "value": "153122 and 125534 and 162145"}, {"measurement": "Glucose-6-phosphate raw counts", "setting": "LN229 cells", "value": "88085.3 and 91037.8 and 85962.2"}, {"measurement": "Glutathione disulfide raw counts", "setting": "LN229 cells", "value": "20165.3 and 26983.3 and 23186.6"}, {"measurement": "Isocitrate raw counts", "setting": "LN229 cells", "value": "87479.9 and 73064.6 and 81642.9"}, {"measurement": "L-arginino-succinate raw counts", "setting": "LN229 cells", "value": "16067.4 and 9060.83 and 9882.12"}, {"measurement": "Lysine raw counts", "setting": "LN229 cells", "value": "3.49E+07 and 4.19E+07 and 3.69E+07"}, {"measurement": "NADP+ raw counts", "setting": "LN229 cells", "value": "7400.66 and 9474.38 and 11194"}, {"measurement": "NADPH raw counts", "setting": "LN229 cells", "value": "16725.4 and 24193.5 and 23508.9"}, {"measurement": "Ornithine raw counts", "setting": "LN229 cells", "value": "2170011 and 2596866 and 2275009"}, {"measurement": "Phosphocholine raw counts", "setting": "LN229 cells", "value": "8510163 and 8304614 and 8411928"}, {"measurement": "Succinyl-CoA raw counts", "setting": "LN229 cells", "value": "2412.65 and 0 (2×)"}, {"measurement": "Thiamine pyrophosphate raw counts", "setting": "LN229 cells", "value": "0 (2×) and 1881.37"}, {"measurement": "UDP-D-Glucose raw counts", "setting": "LN229 cells", "value": "715424 and 734399 and 760376"}, {"measurement": "UMP raw counts", "setting": "LN229 cells", "value": "21257.6 and 12508 and 19270.4"}, {"measurement": "UTP raw counts", "setting": "LN229 cells", "value": "525821 and 442636 and 490428"}]}]}
